Test results: article PMC4567572
Results are given in words; binding and its absence hold for the method and conditions named. Binding can be weak; no strength is given.

Target: OsPYL1 (Oryza sativa L. ssp. Japonica cv. Nipponbare)
Assay: two-hybrid; full-length OsPYLs and OsPP2Cs in pDEST32 or pDEST22 as baits or preys, yeast strain Y2H gold; growth on SD/-His/-Leu/-Trp with 3-AT (0, 3.0, 5.0 and 10 mM), in the absence or presence of ABA; 4 days at 30 °C

B1: OsPP2C53 (enzyme, UniProt Q6L4R7 1-445)
chain: MEDLALPAAPPAPTLSFTLLAAAAAVAEAMEEALGAALPPLTAPVPAPGDDSACGSPCSVASDCSSVASADFEGFAELGTSLLAGPAVLFDDLTAASVAVAEAAEPRAVGATARSVFAMDCVPLWGLESICGRRPEMEDDYAVVPRFFDLPLWMVAGDAAVDGLDRASFRLPAHFFAVYDGHGGVQVANYCRKRIHAVLTEELRRAEDDACGSDLSGLESKKLWEKAFVDCFSRVDAEVGGNAASGAPPVAPDTVGSTAVVAVVCSSHVIVANCGDSRAVLCRGKQPLPLSLDHKPNREDEYARIEALGGKVIQWNGYRVLGVLAMSRSIGDKYLKPYIIPVPEVTVVARAKDDDCLILASDGLWDVMSNEEVCDAARKRILLWHKKNAATASTSSAQISGDSSDPAAQAAADYLSKLALQKGSKDNITVVVIDLKAHRKFKSKA
**Q.** B1 was tested. Which binding did it give?
**A.** binds
